According to patent US11685741B2, “Fluorescent probes” (University of Massachusetts, priority 2017, dated 2023):
Several values for one entry are separate records, joined by “and”; a condition that tells them apart may be missing. Equal entries are not always repeated.

Columns and labels:
[1] = system: ws1 cells; assay: Ratiometric determination of labile Fe2+ concentration in ws1 cells; assay type: cell-based, human
Procedure: (§1) For concentration determination, human primary fibroblast ws1 cells were grown at 37° C. in a humid atmosphere of 5% CO2 atmosphere in eagle's minimum essential medium (EMEM, ATCC) supplemented with 10% fetal bovine serum (FBS, ATCC). Cultures were divided into 1:2 every 48 h to an approximate cell density of 1.21 million cells/ml and used for experiments after 24 h. In addition, the human colon adenocarcinoma cell line HT29 (ATCC) was routinely grown in Dulbecco's modified Eagle's medium (DMEM) supplemented with 10% fetal bovine serum (FBS, ATCC).
(§2) A Zeiss LSM 710 laser-scanning confocal microscope system was used for cell imaging experiments in collaboration with a person in the lab. 40× oil-immersion objective lens were used to perform all the experiments. For imaging with the NIRh-Fret sensor, excitation wavelength of the laser was 633 nm and emissions were collected over the range 650-850 nm. For images with MitoTracker Green FM, LysoTracker Red DND-100, excitation wavelengths recommended by the manufacturer were 488 nm for MitoTracker, 543 nm for LysoTracker. Emissions were integrated at 492-535 nm (MitoTracker), 550-625 nm (LysoTracker), respectively.
(§3) To determine the concentration of labile Fe^2+, the ratiometric Fe^2+ sensor, NIRh-Fret, has been developed. The two-bands absorption/fluorescence nature of the ratiometric sensor enables the tracing of the cellular distribution of the sensor itself as well as detecting the labile Fe^2+ pools. When Fe^2+ was added to NIRh-Fret solution, a decrease in intensity at 540 nm of the fluorescence and an increase in intensity at 735 nm were observed (FIGS. 70A-B).
(§4) To determine the cellular concentration of Fe^2+, an in-vitro calibration curve was obtained by titrating the sensor, NIRh-Fret (20 μM), with different concentrations of Fe^2+ and a calibration curve was obtained by plotting [Fe^2+] versus fluorescent ratio (F735/F540) (FIG. 71). Ratiometric imaging was performed with 2 different cell lines, HT29 cells and WS1 cells and with iron replete and depleting conditions.
(§5) Fitting the ratiometric imaging data to the calibration curve gives Fe^2+ concentration for the first time in ws1 cells, with a value of ˜8±1 μM determined in the mitochondria of untreated cells, 12±1 μM in the mitochondria of Fe (II) treated cells, and 5±1 μM in the mitochondria of the Fe(II)-chelator Bpy treated cells, 71 μM determined in the lysosomes of untreated cells, 10±1 μM in the lysosomes of Fe (II) treated cells, and 5±1 μM in the lysosomes of Bpy treated cells. Cytosol Fe^2+ levels are low which were not readily observed by the imaging pictures. […] By fitting the ratios to the calibration curve, Fe^2+ concentration was determined to be below 1 μM in the cytosol of untreated cells, 3-4 μM in the cytosol of Fe (II) treated cells, and 0 μM in the cytosol of Bpy treated cells. Also Fe^2+ concentrations in HT-29 cells determined to be ˜11±1 μM in the mitochondria of untreated cells, 15±1 μM in mitochondria of Fe (II)-treated cells, and 9±1 μM in mitochondria of Bpy-treated cells and 9±1 μM determined in the lysosomes of untreated cells, 13±1 μM in the lysosomes of Fe (II) treated cells, and 6±1 μM in the lysosomes of Bpy treated cells, below 1 μM determined in the cytosol of untreated cells, 4-5 μM in the cytosol of Fe (II) treated cells, and 0 μM in the cytosol of Bpy treated cells and the results are summarized in Table 2.

[2] = system: HT-29 cells; assay: Ratiometric determination of labile Fe2+ concentration in HT-29 cells; assay type: cell-based, human
Procedure: as §1, §2, §3, §4, §5

[3] = ratio F735/F540 fitted to calibration curve

CCN(CC)c1ccc2c(c1)OC1=C(CCC/C1=C\C=C1\N(C)c3ccccc3C1(C)C)C21c2ccccc2C(=O)N1/N=C\C=C\c1ccc(N(C)C)cc1 (stereo not drawn) [NIRh-Fret, (E)-6′-(diethylamino)-2-(((1Z,2E)-3-(4-(dimethylamino)phenyl)allylidene)amino)-4′-(2-((E)-1,3,3-trimethylindolin-2-ylidene)ethylidene)-1′,2′,3′,4′-tetrahydrospiro[isoindoline-1,9′-xanthen]-3-one]
Fe(II) concentration in cytosol, Bpy treated cells [1]: ~0 µM
Fe(II) concentration in cytosol, Fe(II) treated cells [1]: 3 to 4 µM
Fe(II) concentration in lysosome, Bpy treated cells [1]: 5 ± 1 µM
Fe(II) concentration in lysosome, Fe(II) treated cells [1]: 10 ± 1 µM
Fe(II) concentration in mitochondria, Bpy treated cells [1]: 5 ± 1 µM
Fe(II) concentration in mitochondria, Fe(II) treated cells [1]: 12 ± 1 µM
Fe(II) concentration in mitochondria, Untreated cells [1, 3]: ~8 ± 1 µM and 8 ± 1 µM
Fe(II) concentration in cytosol, Bpy treated cells [2]: 0 µM
Fe(II) concentration in cytosol, Fe(II) treated cells [2]: 4 to 5 µM
Fe(II) concentration in lysosome, Bpy treated cells [2]: 6 ± 1 µM
Fe(II) concentration in lysosome, Fe(II) treated cells [2]: 13 ± 1 µM
Fe(II) concentration in lysosome, Untreated cells [2]: ~9 ± 1 µM and 9 ± 1 µM
Fe(II) concentration in mitochondria, Bpy treated cells [2]: 9 ± 1 µM
Fe(II) concentration in mitochondria, Fe(II) treated cells [2]: 15 ± 1 µM
Fe(II) concentration in mitochondria, Untreated cells [2, 3]: ~11 ± 1 µM and 11 ± 1 µM
